According to patent US20090291081A1:
These are yes or no findings as the source states them, for the method shown. Some results given as binding are weak or reduced against the parent protein; the word gives no strength.

Sequences of proteins named here, by UniProt entry; tags and fusion partners are left off. Residues count along the entry.
UniProt P01584, residues 117-269: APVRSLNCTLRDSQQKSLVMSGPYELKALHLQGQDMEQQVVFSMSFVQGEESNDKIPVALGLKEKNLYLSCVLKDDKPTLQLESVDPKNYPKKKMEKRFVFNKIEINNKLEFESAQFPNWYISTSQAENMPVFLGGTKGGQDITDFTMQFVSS

Molecular target: human IL-1β (human) (UniProt P01584)
Assay: Table 60 heading; dAbs from selection on antigen

Binder	binding
ABT2-108 (protein) VH: EVQLLESGGGLVQPGGSLRLSCAASGFTFAEYTMMWVRQAPGKGLEWVSRIGQDGKNTYYADSVKGRFTISRDNSKNTLYLQMNSLRAEDTAVYYCAKYTGRVGVHHLFDYWGQGTLVTSS	binds
ABT2-108-613 (protein) VH: EVQLLESGGGLVQPGGSLRLSCAASGFTFAEYTMMWVRQAPGKGLEWVSRIGQDGKNTYYADSVKGRFTISRDNSKNTLYLQMNSLRAEDTAVYYCAKYTGRVFEHHLFDYWGQGTLVTVSS	binds
